# PubChem BioAssay AID248 (DTP/NCI, 2004)
# The list does not hold the whole screen: it gathers tests that were run many times, whatever their T/C, doses with no T/C, and many T/C values between a quarter and a half above the control. Other doses and runs of a compound stand elsewhere. T/C: endpoint of the treated group in % of that of the vehicle group. Some doses have a count of surviving animals in place of a T/C: the source holds a T/C of zero for them, seemingly a mark for toxic or unscored doses. Some doses without a T/C left all or most animals alive at the check, yet need not have been tolerated: the source hardly ever lists a survival T/C far under the control, and the zero likely stands for such cases as well. Counts of survivors are from the toxicity check (mostly the fifth day) where no day follows; animals may have died later. Schedule codes are those of the source, read here as Q, the interval in days (D) or hours (H), X, the number of doses. Some schedule codes hold Z or #, which are not explained here. Marks such as (2×) say how often a value occurs here. Where survival is the endpoint, the PubChem record calls one and a half times the control and up active, and a quarter to a half above the control has no call in these data; cut-offs in other NCI protocols can differ. Some entries were tested several times; the values are given in rising order.
# System: L1210 leukemia ip in BDF1 mice, survival T/C
# Experiment: NCI In Vivo Anticancer Drug Screen. Data for tumor model L1210 Leukemia (intraperitoneal) in B6D2F1 (BDF1) mice
# Conditions: T/C endpoint: mean survival time, higher T/C = longer survival
# [1] = dose: 400.0 mg/kg/injection, schedule: Q01DX009 (ip), vehicle: saline with Tween-80
# [2] = dose: 200.0 mg/kg/injection, schedule: Q04DX003 (ip), vehicle: saline
# [3] = dose: 400.0 mg/kg/injection, schedule: Q04DX003 (ip), vehicle: saline
# [4] = dose: 50.0 mg/kg/injection, schedule: Q01DX009 (ip), vehicle: Klucel (hydroxypropylcellulose) (HPC)
# [5] = dose: 400.0 mg/kg/injection, schedule: Q04DX003 (ip), vehicle: Klucel (hydroxypropylcellulose) (HPC)
# [6] = dose: 400.0 mg/kg/injection, schedule: Q04DX003 (ip), vehicle: saline with Tween-80
smiles,measurement,setting,value
CCNc1nncs1,T/C,"dose: 34.5 mg/kg/injection, schedule: Q01DX Z (ip), vehicle: carboxymethylcellulose (CMC)",126 % of control
same,T/C,"dose: 37.0 mg/kg/injection, schedule: Q01DX Z (ip), vehicle: saline",132 % of control
same,T/C,"dose: 64.5 mg/kg/injection, schedule: Q02DX010 (ip), vehicle: carboxymethylcellulose (CMC)",125 and 135 % of control
same,T/C,"dose: 69.0 mg/kg/injection, schedule: Q01DX Z (ip), vehicle: carboxymethylcellulose (CMC)","115, 116, 122, 143 % of control"
same,T/C,"dose: 90.0 mg/kg/injection, schedule: Q01DX015 (ip), vehicle: saline",129 % of control
same,T/C,"dose: 96.0 mg/kg/injection, schedule: Q02DX010 (ip), vehicle: carboxymethylcellulose (CMC)",126 % of control
same,T/C,"dose: 96.75 mg/kg/injection, schedule: Q02DX010 (ip), vehicle: carboxymethylcellulose (CMC)",134 and 135 % of control
same,T/C,"dose: 135.0 mg/kg/injection, schedule: Q01DX015 (ip), vehicle: saline",135 % of control
same,T/C,"dose: 150.0 mg/kg/injection, schedule: Q02DX010 (ip), vehicle: carboxymethylcellulose (CMC)",135 and 139 % of control
same,T/C,"dose: 225.0 mg/kg/injection, schedule: Q02DX010 (ip), vehicle: carboxymethylcellulose (CMC)","124, 128, 133, 165 % of control"
same,survivor count,"dose: 300.0 mg/kg/injection, schedule: Q01DX Z (ip), vehicle: saline",2 of 6
same,T/C,"dose: 337.5 mg/kg/injection, schedule: Q02DX010 (ip), vehicle: carboxymethylcellulose (CMC)",125 and 136 % of control
same,survivor count,"dose: 400.0 mg/kg/injection, schedule: Q01DX001 (ip), vehicle: saline",2 of 6
same,survivor count,"dose: 900.0 mg/kg/injection, schedule: Q01DX001 (ip), vehicle: saline",6 of 10
same,survivor count,"dose: 1200.0 mg/kg/injection, schedule: Q01DX Z (oral), vehicle: saline",3 of 7
same,survivor count,"dose: 1350.0 mg/kg/injection, schedule: Q01DX001 (ip), vehicle: saline",1 of 10
CC1(c2ccc(O)cc2)CCC(C(C)(C)c2ccc(O)cc2)CC1 (stereo not given),survivor count,[1],5 of 6
O=C(CCCl)OCC#CCOC(=O)CCCl,survivor count,[1],4 of 6
N#CC12CC3CC(CC(C3)C1)C2,survivor count,"dose: 100.0 mg/kg/injection, schedule: Q01DX001 (ip), vehicle: carboxymethylcellulose (CMC)",1 of 6
same,survivor count,"dose: 200.0 mg/kg/injection, schedule: Q01DX001 (ip), vehicle: carboxymethylcellulose (CMC)",0 of 6
same,survivor count,"dose: 400.0 mg/kg/injection, schedule: Q01DX001 (ip), vehicle: carboxymethylcellulose (CMC)",0 of 6
CC1CN=C(c2ccc(NC(=O)NCCCCCCCCCCCCNC(=O)Nc3ccc(C4=NCC(C)N4)cc3)cc2)N1 (stereo not given),survivor count,"dose: 250.0 mg/kg/injection, schedule: Q01DX Z (ip), vehicle: carboxymethylcellulose (CMC)",5 of 6
same,survivor count,"dose: 500.0 mg/kg/injection, schedule: Q01DX Z (ip), vehicle: carboxymethylcellulose (CMC)",0 of 6
O=C1NC(=O)C2C3C=CC(C12)C1C2C(=O)NC(=O)C2C31 (stereo not given),T/C,"dose: 200.0 mg/kg/injection, schedule: Q01DX009 (ip), vehicle: saline with Tween-80",138 % of control
CC[n+]1cccc(C#N)c1,survivor count,"dose: 300.0 mg/kg/injection, schedule: Q04DX003 (ip), vehicle: saline",0 of 6
C=CCNc1ccnc(SC)n1,survivor count,"dose: 400.0 mg/kg/injection, schedule: Q01DX001 (ip), vehicle: gum acacia",3 of 6
CC(C)C(=O)c1ccc([N+](=O)[O-])o1,survivor count,[1],6 of 6
CCCCC(=O)N/N=C(\C)[C@]1(O)Cc2c(O)c3c(c(O)c2[C@@H](OC2CC(N)C(O)C(C)O2)C1)C(=O)c1c(OC)cccc1C3=O (stereo not given in full),survivor count,"dose: 100.0 mg/kg/injection, schedule: Q04DX003 (ip), vehicle: saline",6 of 6
same,survivor count,[2],4 of 6
same,survivor count,[3],0 of 6
CCN(CC)CCNc1ccccc1[N+](=O)[O-],survivor count,"dose: 300.0 mg/kg/injection, schedule: Q04DX003 (ip), vehicle: acid diluted with saline",1 of 6
CCCCCCCCCCCCCCn1cnc2c(N)ncnc21,survivor count,"dose: 200.0 mg/kg/injection, schedule: Q01DX005 (ip), vehicle: other",2 of 6
CN1CCN=C1c1ccc(NC(=O)c2ccc(C(=O)Nc3ccc(C4=NCCN4C)cc3)c(Cl)c2)cc1,survivor count,"dose: 12.0 mg/kg/injection, schedule: Q01DX Z (ip), vehicle: water",0 of 6
CCN=C(c1ccc(NC(=O)c2ccc(C(=O)Nc3ccc(C(=NCC)N(CC)C(=O)CC(C)C)cc3)cc2)cc1)N(CC)C(=O)CC(C)C,survivor count,"dose: 400.0 mg/kg/injection, schedule: Q01DX015 (ip), vehicle: methylcellulose (MC)",6 of 6
NC(CS)C(=O)O (stereo not given),survivor count,"dose: 500.0 mg/kg/injection, schedule: Q01DX Z (ip), vehicle: other",0 of 7
same,survivor count,"dose: 1000.0 mg/kg/injection, schedule: Q01DX Z (ip), vehicle: other",0 of 7
O=C(NCCCl)Nc1ccc2c3c(cccc13)CC2,survivor count,[4],6 of 6
same,survivor count,"dose: 100.0 mg/kg/injection, schedule: Q04DX003 (ip), vehicle: Klucel (hydroxypropylcellulose) (HPC)",4 of 6
same,survivor count,"dose: 200.0 mg/kg/injection, schedule: Q01DX009 (ip), vehicle: Klucel (hydroxypropylcellulose) (HPC)",0 of 6
same,survivor count,[5],3 of 6
CC(C)N(Cl)S(C)(=O)=O,survivor count,[2],1 of 3
same,survivor count,[3],0 of 3
CC(C)C(NC1=NCCO1)c1ccccc1 (stereo not given),survivor count,"dose: 100.0 mg/kg/injection, schedule: Q04DX003 (ip), vehicle: saline with Tween-80",6 of 6
same,survivor count,"dose: 200.0 mg/kg/injection, schedule: Q04DX003 (ip), vehicle: saline with Tween-80",0 of 6
same,survivor count,[6],0 of 6
Cc1nc(N)nc(N)c1CCCc1ccccc1,survivor count,"dose: 12.5 mg/kg/injection, schedule: Q01DX001 (ip), vehicle: saline with Tween-80",1 of 6
same,survivor count,"dose: 25.0 mg/kg/injection, schedule: Q01DX001 (ip), vehicle: saline with Tween-80",0 of 6 (2×)
same,survivor count,"dose: 50.0 mg/kg/injection, schedule: Q01DX001 (ip), vehicle: saline with Tween-80",0 of 6
same,survivor count,"dose: 100.0 mg/kg/injection, schedule: Q01DX001 (ip), vehicle: saline with Tween-80",0 of 6
CSC(=NCc1ccccc1)NC1CCCCC1,survivor count,"dose: 100.0 mg/kg/injection, schedule: Q04DX002 (ip), vehicle: Klucel (hydroxypropylcellulose) (HPC)",0 of 3
same,survivor count,"dose: 200.0 mg/kg/injection, schedule: Q04DX002 (ip), vehicle: Klucel (hydroxypropylcellulose) (HPC)",0 of 3
same,survivor count,"dose: 400.0 mg/kg/injection, schedule: Q04DX002 (ip), vehicle: Klucel (hydroxypropylcellulose) (HPC)",0 of 3
CC(Cc1ccccc1)NN (stereo not given),survivor count,"dose: 31.25 mg/kg/injection, schedule: Q01DX009 (ip), vehicle: saline",5 of 6
same,survivor count,"dose: 62.5 mg/kg/injection, schedule: Q01DX009 (ip), vehicle: saline",0 of 6
same,survivor count,"dose: 125.0 mg/kg/injection, schedule: Q04DX003 (ip), vehicle: saline",3 of 4
same,survivor count,"dose: 250.0 mg/kg/injection, schedule: Q04DX003 (ip), vehicle: saline",0 of 4
CCCC(C(=O)OCCN1CCCC12CCCCC2)C1CCCC1 (stereo not given),survivor count,"dose: 45.0 mg/kg/injection, schedule: Q01DX Z (ip), vehicle: methylcellulose (MC)",6 of 6
CC1(c2cccs2)C(=O)NC(=O)N1C(=O)CCl (stereo not given),survivor count,[1],0 of 6
same,survivor count,[6],4 of 6
CCCCCC(=O)c1c(O)cc(=O)oc1C,survivor count,"dose: 25.0 mg/kg/injection, schedule: Q01DX009 (ip), vehicle: Klucel (hydroxypropylcellulose) (HPC)",5 of 6
same,survivor count,[4],0 of 6
same,survivor count,"dose: 100.0 mg/kg/injection, schedule: Q01DX009 (ip), vehicle: Klucel (hydroxypropylcellulose) (HPC)",0 of 6
same,survivor count,"dose: 200.0 mg/kg/injection, schedule: Q04DX003 (ip), vehicle: Klucel (hydroxypropylcellulose) (HPC)",5 of 6
same,survivor count,[5],0 of 6
Cc1c(CCO)sc[n+]1Cc1ccccc1,survivor count,"dose: 400.0 mg/kg/injection, schedule: Q04DX002 (ip), vehicle: saline",1 of 3
